These are yes or no findings as the source states them, for the method shown. In cells and extracts the contact can be indirect. A yes stands for co-enrichment or nearness to the bait. Other partners may have been found. For some of these results: Where a sequence is shown, tags or fusion partners need not be part of it.
B1: LUC7L2 (protein, UniProt Q9Y383 1-392)
chain: MSAQAQMRAMLDQLMGTSRDGDTTRQRIKFSDDRVCKSHLLNCCPHDVLSGTRMDLGECLKVHDLALRADYEIASKEQDFFFELDAMDHLQSFIADCDRRTEVAKKRLAETQEEISAEVAAKAERVHELNEEIGKLLAKVEQLGAEGNVEESQKVMDEVEKARAKKREAEEVYRNSMPASSFQQQKLRVCEVCSAYLGLHDNDRRLADHFGGKLHLGFIEIREKLEELKRVVAEKQEKRNQERLKRREEREREEREKLRRSRSHSKNPKRSRSREHRRHRSRSMSRERKRRTRSKSREKRHRHRSRSSSRSRSRSHQRSRHSSRDRSRERSKRRSSKERFRDQDLASCDRDRSSRDRSPRDRDRKDKKRSYESANGRSEDRRSSEEREAGEI
B2: hnRNPM (protein, UniProt P52272 1-730)
chain: MAAGVEAAAEVAATEIKMEEESGAPGVPSGNGAPGPKGEGERPAQNEKRKEKNIKRGGNRFEPYANPTKRYRAFITNIPFDVKWQSLKDLVKEKVGEVTYVELLMDAEGKSRGCAVVEFKMEESMKKAAEVLNKHSLSGRPLKVKEDPDGEHARRAMQKVMATTGGMGMGPGGPGMITIPPSILNNPNIPNEIIHALQAGRLGSTVFVANLDYKVGWKKLKEVFSMAGVVVRADILEDKDGKSRGIGTVTFEQSIEAVQAISMFNGQLLFDRPMHVKMDERALPKGDFFPPERPQQLPHGLGGIGMGLGPGGQPIDANHLNKGIGMGNIGPAGMGMEGIGFGINKMGGMEGPFGGGMENMGRFGSGMNMGRINEILSNALKRGEIIAKQGGGGGGGSVPGIERMGPGIDRLGGAGMERMGAGLGHGMDRVGSEIERMGLVMDRMGSVERMGSGIERMGPLGLDHMASSIERMGQTMERIGSGVERMGAGMGFGLERMAAPIDRVGQTIERMGSGVERMGPAIERMGLSMERMVPAGMGAGLERMGPVMDRMATGLERMGANNLERMGLERMGANSLERMGLERMGANSLERMGPAMGPALGAGIERMGLAMGGGGGASFDRAIEMERGNFGGSFAGSFGGAGGHAPGVARKACQIFVRNLPFDFTWKMLKDKFNECGHVLYADIKMENGKSKGCGVVKFESPEVAERACRMMNGMKLSGREIDVRIDRNA
B3: RBM14 (protein, UniProt Q96PK6 1-669)
chain: MKIFVGNVDGADTTPEELAALFAPYGTVMSCAVMKQFAFVHMRENAGALRAIEALHGHELRPGRALVVEMSRPRPLNTWKIFVGNVSAACTSQELRSLFERRGRVIECDVVKDYAFVHMEKEADAKAAIAQLNGKEVKGKRINVELSTKGQKKGPGLAVQSGDKTKKPGAGDTAFPGTGGFSATFDYQQAFGNSTGGFDGQARQPTPPFFGRDRSPLRRSPPRASYVAPLTAQPATYRAQPSVSLGAAYRAQPSASLGVGYRTQPMTAQAASYRAQPSVSLGAPYRGQLASPSSQSAAASSLGPYGGAQPSASALSSYGGQAAAASSLNSYGAQGSSLASYGNQPSSYGAQAASSYGVRAAASSYNTQGAASSLGSYGAQAASYGAQSAASSLAYGAQAASYNAQPSASYNAQSAPYAAQQAASYSSQPAAYVAQPATAAAYASQPAAYAAQATTPMAGSYGAQPVVQTQLNSYGAQASMGLSGSYGAQSAAAATGSYGAAAAYGAQPSATLAAPYRTQSSASLAASYAAQQHPQAAASYRGQPGNAYDGAGQPSAAYLSMSQGAVANANSTPPPYERTRLSPPRASYDDPYKKAVAMSKRYGSDRRLAELSDYRRLSESQLSFRRSPTKSSLDYRRLPDAHSDYARYSGSYNDYLRAAQMHSGYQRRM
B4: LIG3 (protein, UniProt P49916 43-1009)
chain: LLHGHPLFLRRKPVLSFQGSHLRSRATYLVFLPGLHVGLCSGPCEMAEQRFCVDYAKRGTAGCKKCKEKIVKGVCRIGKVVPNPFSESGGDMKEWYHIKCMFEKLERARATTKKIEDLTELEGWEELEDNEKEQITQHIADLSSKAAGTPKKKAVVQAKLTTTGQVTSPVKGASFVTSTNPRKFSGFSAKPNNSGEAPSSPTPKRSLSSSKCDPRHKDCLLREFRKLCAMVADNPSYNTKTQIIQDFLRKGSAGDGFHGDVYLTVKLLLPGVIKTVYNLNDKQIVKLFSRIFNCNPDDMARDLEQGDVSETIRVFFEQSKSFPPAAKSLLTIQEVDEFLLRLSKLTKEDEQQQALQDIASRCTANDLKCIIRLIKHDLKMNSGAKHVLDALDPNAYEAFKASRNLQDVVERVLHNAQEVEKEPGQRRALSVQASLMTPVQPMLAEACKSVEYAMKKCPNGMFSEIKYDGERVQVHKNGDHFSYFSRSLKPVLPHKVAHFKDYIPQAFPGGHSMILDSEVLLIDNKTGKPLPFGTLGVHKKAAFQDANVCLFVFDCIYFNDVSLMDRPLCERRKFLHDNMVEIPNRIMFSEMKRVTKALDLADMITRVIQEGLEGLVLKDVKGTYEPGKRHWLKVKKDYLNEGAMADTADLVVLGAFYGQGSKGGMMSIFLMGCYDPGSQKWCTVTKCAGGHDDATLARLQNELDMVKISKDPSKIPSWLKVNKIYYPDFIVPDPKKAAVWEITGAEFSKSEAHTADGISIRFPRCTRIRDDKDWKSATNLPQLKELYQLSKEKADFTVVAGDEGSSTTGGSSEENKGPSGSAVSRKAPSKPSASTKKAEGKLSNSNSKDGNMQTAKPSAMKVGEKLATKSSPVKVGEKRKAADETLCQTKVLLDIFTGVRLYLPPSTPDFSRLRRYFVAFDGDLVQEFDMTSATHVLGSRDKNPAAQQVSPEWIWACIRKRRLVAPC
B5: ATF7IP (Activating Transcription Factor 7-Interacting Protein 1) (protein, UniProt Q6VMQ6 1-1270)
chain: MDSLEEPQKKVFKARKTMRVSDRQQLEAVYKVKEELLKTDVKLLNGNHENGDLDPTSPLENMDYIKDKEEVNGIEEICFDPEGSKAEWKETPCILSVNVKNKQDDDLNCEPLSPHNITPEPVSKLPAEPVSGDPAPGDLDAGDPASGVLASGDSTSGDPTSSEPSSSDAASGDATSGDAPSGDVSPGDATSGDATADDLSSGDPTSSDPIPGEPVPVEPISGDCAADDIASSEITSVDLASGAPASTDPASDDLASGDLSSSELASDDLATGELASDELTSESTFDRTFEPKSVPVCEPVPEIDNIEPSSNKDDDFLEKNGADEKLEQIQSKDSLDEKNKADNNIDANEETLETDDTTICSDRPPENEKKVEEDIITELALGEDAISSSMEIDQGEKNEDETSADLVETINENVIEDNKSENILENTDSMETDEIIPILEKLAPSEDELTCFSKTSLLPIDETNPDLEEKMESSFGSPSKQESSESLPKEAFLVLSDEEDISGEKDESEVISQNETCSPAEVESNEKDNKPEEEEQVIHEDDERPSEKNEFSRRKRSKSEDMDNVQSKRRRYMEEEYEAEFQVKITAKGDINQKLQKVIQWLLEEKLCALQCAVFDKTLAELKTRVEKIECNKRHKTVLTELQAKIARLTKRFEAAKEDLKKRHEHPPNPPVSPGKTVNDVNSNNNMSYRNAGTVRQMLESKRNVSESAPPSFQTPVNTVSSTNLVTPPAVVSSQPKLQTPVTSGSLTATSVLPAPNTATVVATTQVPSGNPQPTISLQPLPVILHVPVAVSSQPQLLQSHPGTLVTNQPSGNVEFISVQSPPTVSGLTKNPVSLPSLPNPTKPNNVPSVPSPSIQRNPTASAAPLGTTLAVQAVPTAHSIVQATRTSLPTVGPSGLYSPSTNRGPIQMKIPISAFSTSSAAEQNSNTTPRIENQTNKTIDASVSKKAADSTSQCGKATGSDSSGVIDLTMDDEESGASQDPKKLNHTPVSTMSSSQPVSRPLQPIQPAPPLQPSGVPTSGPSQTTIHLLPTAPTTVNVTHRPVTQVTTRLPVPRAPANHQVVYTTLPAPPAQAPLRGTVMQAPAVRQVNPQNSVTVRVPQTTTYVVNNGLTLGSTGPQLTVHHRPPQVHTEPPRPVHPAPLPEAPQPQRLPPEAASTSLPQKPHLKLARVQSQNGIVLSWSVLEVDRSCATVDSYHLYAYHEEPSATVPSQWKKIGEVKALPLPMACTLTQFVSGSKYYFAVRAKDIYGRFGPFCDPQSTDVISSTQSS

Chains of the proteins cited; added tags and fusions are not shown.
UniProt Q9H9B1: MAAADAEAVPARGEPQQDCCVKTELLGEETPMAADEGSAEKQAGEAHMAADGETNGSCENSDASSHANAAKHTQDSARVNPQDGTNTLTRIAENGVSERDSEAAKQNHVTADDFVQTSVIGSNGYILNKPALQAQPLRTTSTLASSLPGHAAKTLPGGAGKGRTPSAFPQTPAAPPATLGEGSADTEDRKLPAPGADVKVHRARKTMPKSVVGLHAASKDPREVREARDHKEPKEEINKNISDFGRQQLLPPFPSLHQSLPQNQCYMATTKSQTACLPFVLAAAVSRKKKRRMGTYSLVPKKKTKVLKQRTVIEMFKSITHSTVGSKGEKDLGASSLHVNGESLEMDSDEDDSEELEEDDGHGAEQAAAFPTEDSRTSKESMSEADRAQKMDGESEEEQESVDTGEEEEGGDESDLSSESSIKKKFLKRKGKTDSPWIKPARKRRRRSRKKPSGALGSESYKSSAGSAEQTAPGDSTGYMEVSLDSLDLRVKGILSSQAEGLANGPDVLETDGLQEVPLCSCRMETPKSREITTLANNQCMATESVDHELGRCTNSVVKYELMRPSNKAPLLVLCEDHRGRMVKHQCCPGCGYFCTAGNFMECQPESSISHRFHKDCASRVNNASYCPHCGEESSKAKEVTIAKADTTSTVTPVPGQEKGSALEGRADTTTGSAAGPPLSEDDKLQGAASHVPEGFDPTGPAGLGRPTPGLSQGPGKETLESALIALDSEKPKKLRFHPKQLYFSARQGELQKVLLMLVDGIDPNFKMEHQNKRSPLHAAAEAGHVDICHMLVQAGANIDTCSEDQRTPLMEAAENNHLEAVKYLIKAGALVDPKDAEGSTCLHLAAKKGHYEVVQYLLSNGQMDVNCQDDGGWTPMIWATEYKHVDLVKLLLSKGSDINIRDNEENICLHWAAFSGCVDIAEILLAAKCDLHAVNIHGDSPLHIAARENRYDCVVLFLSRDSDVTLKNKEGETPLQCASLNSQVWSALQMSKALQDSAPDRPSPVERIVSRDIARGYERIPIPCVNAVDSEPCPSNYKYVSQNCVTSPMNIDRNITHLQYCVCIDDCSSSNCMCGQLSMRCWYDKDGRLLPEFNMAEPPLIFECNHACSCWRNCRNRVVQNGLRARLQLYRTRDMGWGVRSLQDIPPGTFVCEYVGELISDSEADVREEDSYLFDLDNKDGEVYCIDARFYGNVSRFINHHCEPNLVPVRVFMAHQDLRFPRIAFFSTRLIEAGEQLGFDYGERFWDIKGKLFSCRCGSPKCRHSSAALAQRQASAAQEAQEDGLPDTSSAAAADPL
UniProt P18754: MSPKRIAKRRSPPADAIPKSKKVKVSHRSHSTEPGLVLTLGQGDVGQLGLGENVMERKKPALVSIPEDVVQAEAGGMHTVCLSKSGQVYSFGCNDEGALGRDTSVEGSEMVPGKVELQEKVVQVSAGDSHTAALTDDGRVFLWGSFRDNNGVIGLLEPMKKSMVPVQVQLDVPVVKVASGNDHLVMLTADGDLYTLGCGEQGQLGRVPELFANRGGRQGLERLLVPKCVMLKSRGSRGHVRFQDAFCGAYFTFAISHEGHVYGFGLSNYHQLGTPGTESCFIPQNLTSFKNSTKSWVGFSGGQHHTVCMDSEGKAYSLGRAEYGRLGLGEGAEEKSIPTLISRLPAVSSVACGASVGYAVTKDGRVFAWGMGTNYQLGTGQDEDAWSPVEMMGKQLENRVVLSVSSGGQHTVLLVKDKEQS
UniProt P67809: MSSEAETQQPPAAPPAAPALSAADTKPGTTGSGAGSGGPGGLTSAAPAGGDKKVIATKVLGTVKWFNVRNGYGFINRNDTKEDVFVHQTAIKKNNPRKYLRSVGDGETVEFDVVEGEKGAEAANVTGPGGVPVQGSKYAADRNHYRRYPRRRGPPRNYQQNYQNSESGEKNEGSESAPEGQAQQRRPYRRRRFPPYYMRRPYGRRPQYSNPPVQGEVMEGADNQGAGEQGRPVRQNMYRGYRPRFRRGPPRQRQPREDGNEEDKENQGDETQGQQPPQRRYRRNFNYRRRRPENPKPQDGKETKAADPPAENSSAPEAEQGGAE
UniProt P11387: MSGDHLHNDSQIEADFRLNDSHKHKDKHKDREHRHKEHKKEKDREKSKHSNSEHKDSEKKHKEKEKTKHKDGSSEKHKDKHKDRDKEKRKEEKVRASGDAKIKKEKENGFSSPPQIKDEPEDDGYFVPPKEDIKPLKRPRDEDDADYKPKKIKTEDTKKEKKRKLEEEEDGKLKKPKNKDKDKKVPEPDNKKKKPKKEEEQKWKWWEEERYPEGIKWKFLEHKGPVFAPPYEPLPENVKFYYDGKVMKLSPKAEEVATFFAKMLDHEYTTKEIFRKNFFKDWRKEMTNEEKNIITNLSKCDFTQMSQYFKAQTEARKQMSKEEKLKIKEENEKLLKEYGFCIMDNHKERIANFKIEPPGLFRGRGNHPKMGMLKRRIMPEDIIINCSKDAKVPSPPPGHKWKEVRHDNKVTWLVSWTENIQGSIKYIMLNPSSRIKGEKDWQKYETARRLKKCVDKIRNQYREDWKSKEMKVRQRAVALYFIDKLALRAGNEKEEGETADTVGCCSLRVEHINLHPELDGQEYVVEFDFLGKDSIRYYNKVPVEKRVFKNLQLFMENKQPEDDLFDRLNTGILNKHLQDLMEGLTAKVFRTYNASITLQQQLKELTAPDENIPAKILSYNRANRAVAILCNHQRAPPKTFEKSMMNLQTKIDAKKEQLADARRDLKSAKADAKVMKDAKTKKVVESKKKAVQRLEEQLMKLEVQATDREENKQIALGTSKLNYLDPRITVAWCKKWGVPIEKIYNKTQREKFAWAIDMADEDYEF
UniProt Q13148: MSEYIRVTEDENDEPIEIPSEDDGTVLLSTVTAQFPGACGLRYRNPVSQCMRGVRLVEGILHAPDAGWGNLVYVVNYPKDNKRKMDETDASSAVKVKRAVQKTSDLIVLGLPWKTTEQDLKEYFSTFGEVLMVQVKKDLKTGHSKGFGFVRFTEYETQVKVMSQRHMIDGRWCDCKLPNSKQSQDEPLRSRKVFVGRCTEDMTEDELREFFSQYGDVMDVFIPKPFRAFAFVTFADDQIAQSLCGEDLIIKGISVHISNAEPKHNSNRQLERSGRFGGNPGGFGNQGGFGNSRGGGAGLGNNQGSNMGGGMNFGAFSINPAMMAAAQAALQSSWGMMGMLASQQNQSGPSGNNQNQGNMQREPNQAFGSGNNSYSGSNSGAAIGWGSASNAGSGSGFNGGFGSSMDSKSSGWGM
UniProt P35637: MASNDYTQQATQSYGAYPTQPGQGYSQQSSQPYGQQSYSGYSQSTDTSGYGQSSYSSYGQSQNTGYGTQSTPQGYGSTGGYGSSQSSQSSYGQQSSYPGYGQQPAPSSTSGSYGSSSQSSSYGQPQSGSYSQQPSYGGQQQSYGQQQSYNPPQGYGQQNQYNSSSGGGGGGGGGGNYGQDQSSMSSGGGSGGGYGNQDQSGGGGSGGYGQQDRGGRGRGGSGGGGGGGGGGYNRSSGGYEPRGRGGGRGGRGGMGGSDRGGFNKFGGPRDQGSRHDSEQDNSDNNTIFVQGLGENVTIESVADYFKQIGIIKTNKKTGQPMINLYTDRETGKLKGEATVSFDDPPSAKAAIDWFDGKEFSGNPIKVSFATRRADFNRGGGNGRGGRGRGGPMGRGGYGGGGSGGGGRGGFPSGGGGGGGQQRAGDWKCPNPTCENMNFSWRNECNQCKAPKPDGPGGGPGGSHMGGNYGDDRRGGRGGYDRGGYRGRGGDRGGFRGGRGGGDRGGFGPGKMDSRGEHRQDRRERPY
UniProt Q9NR30: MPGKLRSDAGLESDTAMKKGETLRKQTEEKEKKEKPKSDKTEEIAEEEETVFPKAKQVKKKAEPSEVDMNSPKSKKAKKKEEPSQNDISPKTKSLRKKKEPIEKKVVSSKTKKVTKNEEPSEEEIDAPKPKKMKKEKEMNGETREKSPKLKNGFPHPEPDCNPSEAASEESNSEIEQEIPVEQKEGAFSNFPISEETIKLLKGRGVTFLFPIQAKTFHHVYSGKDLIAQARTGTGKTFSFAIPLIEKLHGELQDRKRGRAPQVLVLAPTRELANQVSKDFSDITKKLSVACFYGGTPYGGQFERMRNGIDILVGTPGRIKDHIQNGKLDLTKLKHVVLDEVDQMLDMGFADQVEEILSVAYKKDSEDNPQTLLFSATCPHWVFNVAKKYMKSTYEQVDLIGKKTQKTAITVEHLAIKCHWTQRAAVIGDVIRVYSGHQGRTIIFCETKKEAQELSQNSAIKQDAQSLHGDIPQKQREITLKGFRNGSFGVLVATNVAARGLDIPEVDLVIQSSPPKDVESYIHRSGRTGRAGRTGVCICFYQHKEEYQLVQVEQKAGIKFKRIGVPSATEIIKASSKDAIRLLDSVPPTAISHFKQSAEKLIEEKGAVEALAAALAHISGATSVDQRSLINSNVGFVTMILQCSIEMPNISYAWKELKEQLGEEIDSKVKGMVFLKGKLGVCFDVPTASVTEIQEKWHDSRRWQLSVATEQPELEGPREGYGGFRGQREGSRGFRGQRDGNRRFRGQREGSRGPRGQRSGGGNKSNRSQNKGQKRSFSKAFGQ
UniProt P12956: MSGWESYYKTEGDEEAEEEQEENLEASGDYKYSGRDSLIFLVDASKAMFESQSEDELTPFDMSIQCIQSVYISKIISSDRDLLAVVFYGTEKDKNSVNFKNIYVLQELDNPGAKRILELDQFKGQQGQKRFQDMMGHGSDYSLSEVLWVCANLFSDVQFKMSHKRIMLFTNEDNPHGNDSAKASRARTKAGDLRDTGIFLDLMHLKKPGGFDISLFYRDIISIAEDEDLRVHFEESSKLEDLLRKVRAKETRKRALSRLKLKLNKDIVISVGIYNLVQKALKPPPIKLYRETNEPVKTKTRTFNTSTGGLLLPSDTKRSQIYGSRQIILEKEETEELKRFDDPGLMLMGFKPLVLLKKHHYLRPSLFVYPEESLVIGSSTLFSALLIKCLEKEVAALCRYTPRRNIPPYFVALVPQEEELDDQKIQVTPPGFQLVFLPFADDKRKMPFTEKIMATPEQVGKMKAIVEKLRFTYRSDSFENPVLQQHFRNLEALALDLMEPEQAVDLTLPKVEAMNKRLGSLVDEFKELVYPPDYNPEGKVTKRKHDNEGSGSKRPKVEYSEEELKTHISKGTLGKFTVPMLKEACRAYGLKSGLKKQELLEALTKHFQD
UniProt Q92841: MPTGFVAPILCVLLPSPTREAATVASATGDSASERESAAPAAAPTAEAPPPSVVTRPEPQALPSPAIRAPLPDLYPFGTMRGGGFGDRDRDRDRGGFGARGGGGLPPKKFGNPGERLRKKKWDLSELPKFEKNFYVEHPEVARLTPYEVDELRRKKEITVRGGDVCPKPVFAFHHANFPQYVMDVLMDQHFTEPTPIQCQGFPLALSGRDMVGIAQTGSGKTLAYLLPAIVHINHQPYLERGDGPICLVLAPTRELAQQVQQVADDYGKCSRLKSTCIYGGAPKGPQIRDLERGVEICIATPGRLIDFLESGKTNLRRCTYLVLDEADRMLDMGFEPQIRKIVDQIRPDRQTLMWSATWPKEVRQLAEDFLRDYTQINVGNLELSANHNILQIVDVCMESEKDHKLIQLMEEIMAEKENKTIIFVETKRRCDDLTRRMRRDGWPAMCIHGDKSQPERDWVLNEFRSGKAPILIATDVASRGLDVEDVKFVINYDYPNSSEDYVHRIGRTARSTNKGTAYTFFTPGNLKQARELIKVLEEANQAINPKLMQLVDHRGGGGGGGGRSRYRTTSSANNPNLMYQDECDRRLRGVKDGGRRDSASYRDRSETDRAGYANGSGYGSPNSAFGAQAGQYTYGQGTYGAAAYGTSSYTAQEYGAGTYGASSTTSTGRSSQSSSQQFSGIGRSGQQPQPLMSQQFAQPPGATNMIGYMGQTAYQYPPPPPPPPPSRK

Molecular target: Flag-HA tagged MPP8 chromobox (human) (UniProt Q99549)
Assay: affinity purification with mass spectrometry; double-affinity (Flag, then HA) immuno-purification of Flag-HA-MPP8 chromobox from nuclear soluble or nucleosome-enriched (chromatin) fractions of HeLa-S3 cells; 4-12% SDS-PAGE, mass spectrometry and Western blot

binding, binds:
B1, B2, B3, B4, B5

Molecular target: Flag-HA tagged MPP8 chromobox (human) (UniProt Q99549)
Assay: as above
Remark: another data set of the same source

binding, binds:
GLP (from UniProt Q9H9B1 1-1298), RCC1 (from UniProt P18754 1-421), YBX1 (from UniProt P67809 1-324), DNA-PK (from UniProt P78527 1-4128), TOP1 (from UniProt P11387 1-765), TARDBP (from UniProt Q13148 1-414), XRCC5 (from UniProt P13010 1-732), hnRNPP2 (from UniProt P35637 1-526), SMARCA1 (from UniProt P28370 1-1042), DDX21 (from UniProt Q9NR30 1-783), XRCC6 (from UniProt P12956 1-609), DDX17 (from UniProt Q92841 1-729), G9A (from UniProt Q96KQ7 1-1210), hnRNPK (from UniProt P61978 1-463)

Reference: PMC6826936
